Assay results reported in article PMC6989403.
These are yes or no findings as the source states them, for the method shown. Binding seen in cells or lysates may run through a third protein. These calls come from enrichment with a bait or labelling near it, and not all partners need be listed. Where a sequence is shown, tags or fusion partners need not be part of it.

Sequences of proteins named here, by UniProt entry; tags and fusion partners are left off.
UniProt Q16531: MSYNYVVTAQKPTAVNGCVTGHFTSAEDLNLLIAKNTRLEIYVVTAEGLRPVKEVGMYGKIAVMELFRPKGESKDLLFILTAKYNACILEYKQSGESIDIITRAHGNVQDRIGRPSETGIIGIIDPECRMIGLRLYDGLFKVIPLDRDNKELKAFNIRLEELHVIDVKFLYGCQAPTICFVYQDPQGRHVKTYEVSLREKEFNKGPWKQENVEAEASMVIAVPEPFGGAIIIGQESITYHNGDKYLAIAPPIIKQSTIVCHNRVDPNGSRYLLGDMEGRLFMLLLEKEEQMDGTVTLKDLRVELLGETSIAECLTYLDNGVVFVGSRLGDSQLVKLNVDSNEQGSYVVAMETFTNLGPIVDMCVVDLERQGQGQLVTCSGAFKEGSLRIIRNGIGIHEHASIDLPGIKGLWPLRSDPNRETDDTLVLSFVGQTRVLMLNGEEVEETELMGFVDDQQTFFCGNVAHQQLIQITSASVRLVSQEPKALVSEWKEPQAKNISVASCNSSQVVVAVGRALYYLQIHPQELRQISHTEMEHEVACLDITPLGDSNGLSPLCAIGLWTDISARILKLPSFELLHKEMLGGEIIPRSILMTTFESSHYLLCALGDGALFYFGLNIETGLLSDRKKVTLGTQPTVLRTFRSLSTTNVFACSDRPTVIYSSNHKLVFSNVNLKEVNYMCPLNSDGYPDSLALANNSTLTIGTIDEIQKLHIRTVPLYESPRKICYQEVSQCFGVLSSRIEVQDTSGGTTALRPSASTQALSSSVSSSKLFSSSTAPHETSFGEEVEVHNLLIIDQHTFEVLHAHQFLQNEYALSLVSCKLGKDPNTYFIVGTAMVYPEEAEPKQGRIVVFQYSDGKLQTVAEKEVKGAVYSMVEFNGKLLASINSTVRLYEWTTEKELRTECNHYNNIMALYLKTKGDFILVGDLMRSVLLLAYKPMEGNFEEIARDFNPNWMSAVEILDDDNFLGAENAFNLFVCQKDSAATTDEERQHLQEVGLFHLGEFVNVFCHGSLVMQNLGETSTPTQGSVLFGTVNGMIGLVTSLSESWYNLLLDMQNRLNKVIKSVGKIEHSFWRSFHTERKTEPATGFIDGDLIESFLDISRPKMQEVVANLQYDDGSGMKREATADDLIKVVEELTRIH
UniProt P09429: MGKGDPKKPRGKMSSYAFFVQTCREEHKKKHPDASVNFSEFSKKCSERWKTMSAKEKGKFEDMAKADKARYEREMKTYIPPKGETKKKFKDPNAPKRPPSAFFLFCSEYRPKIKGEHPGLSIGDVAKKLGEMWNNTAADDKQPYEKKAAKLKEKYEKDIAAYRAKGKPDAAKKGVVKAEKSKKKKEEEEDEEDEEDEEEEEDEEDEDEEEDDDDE
UniProt P35579: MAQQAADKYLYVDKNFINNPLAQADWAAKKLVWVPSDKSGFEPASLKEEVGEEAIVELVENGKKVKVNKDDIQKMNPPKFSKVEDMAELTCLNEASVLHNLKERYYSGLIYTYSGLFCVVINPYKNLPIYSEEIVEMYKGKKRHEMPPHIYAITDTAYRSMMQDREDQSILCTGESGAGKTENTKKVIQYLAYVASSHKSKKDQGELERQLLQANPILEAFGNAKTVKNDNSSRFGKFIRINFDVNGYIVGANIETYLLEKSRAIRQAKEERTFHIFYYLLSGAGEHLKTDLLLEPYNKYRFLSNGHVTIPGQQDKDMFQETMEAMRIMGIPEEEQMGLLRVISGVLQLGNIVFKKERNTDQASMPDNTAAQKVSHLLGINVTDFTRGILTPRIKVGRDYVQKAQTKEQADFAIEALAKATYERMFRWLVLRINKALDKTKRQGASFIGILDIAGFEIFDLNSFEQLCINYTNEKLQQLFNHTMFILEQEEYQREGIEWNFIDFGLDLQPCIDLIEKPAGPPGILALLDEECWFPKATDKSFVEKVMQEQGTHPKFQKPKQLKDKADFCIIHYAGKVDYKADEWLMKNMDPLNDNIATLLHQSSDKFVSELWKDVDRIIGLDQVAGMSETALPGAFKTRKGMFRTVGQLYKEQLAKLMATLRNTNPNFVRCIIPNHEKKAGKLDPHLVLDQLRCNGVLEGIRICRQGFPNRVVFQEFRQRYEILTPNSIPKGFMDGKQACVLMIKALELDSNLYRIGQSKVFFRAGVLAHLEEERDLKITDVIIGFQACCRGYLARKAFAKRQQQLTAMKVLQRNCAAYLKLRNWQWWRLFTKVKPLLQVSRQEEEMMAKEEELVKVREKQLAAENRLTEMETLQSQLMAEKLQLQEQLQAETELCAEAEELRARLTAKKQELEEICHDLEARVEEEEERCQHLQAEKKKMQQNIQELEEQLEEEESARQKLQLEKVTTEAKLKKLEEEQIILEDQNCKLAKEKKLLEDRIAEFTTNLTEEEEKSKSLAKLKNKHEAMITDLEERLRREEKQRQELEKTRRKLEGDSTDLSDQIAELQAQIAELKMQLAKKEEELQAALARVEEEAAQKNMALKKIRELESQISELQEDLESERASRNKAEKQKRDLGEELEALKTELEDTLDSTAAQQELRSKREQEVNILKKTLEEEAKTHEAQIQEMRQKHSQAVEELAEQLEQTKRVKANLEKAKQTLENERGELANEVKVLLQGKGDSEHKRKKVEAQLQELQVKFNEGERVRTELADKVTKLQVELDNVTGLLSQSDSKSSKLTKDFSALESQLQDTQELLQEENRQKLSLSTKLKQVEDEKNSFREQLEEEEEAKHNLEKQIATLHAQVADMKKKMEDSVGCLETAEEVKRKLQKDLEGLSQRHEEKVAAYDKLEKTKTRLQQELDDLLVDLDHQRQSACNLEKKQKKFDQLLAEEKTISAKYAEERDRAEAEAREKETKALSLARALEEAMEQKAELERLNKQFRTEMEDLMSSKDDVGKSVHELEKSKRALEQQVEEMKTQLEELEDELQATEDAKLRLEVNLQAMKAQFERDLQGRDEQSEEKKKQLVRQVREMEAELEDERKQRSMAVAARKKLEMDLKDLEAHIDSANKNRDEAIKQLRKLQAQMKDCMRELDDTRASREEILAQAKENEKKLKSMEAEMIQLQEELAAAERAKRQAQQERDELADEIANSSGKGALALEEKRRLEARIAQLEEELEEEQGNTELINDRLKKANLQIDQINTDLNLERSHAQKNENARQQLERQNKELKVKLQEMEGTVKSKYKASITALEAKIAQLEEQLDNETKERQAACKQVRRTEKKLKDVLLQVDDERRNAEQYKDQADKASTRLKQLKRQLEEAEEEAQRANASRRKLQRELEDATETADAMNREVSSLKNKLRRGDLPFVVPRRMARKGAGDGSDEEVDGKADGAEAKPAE
UniProt P46934: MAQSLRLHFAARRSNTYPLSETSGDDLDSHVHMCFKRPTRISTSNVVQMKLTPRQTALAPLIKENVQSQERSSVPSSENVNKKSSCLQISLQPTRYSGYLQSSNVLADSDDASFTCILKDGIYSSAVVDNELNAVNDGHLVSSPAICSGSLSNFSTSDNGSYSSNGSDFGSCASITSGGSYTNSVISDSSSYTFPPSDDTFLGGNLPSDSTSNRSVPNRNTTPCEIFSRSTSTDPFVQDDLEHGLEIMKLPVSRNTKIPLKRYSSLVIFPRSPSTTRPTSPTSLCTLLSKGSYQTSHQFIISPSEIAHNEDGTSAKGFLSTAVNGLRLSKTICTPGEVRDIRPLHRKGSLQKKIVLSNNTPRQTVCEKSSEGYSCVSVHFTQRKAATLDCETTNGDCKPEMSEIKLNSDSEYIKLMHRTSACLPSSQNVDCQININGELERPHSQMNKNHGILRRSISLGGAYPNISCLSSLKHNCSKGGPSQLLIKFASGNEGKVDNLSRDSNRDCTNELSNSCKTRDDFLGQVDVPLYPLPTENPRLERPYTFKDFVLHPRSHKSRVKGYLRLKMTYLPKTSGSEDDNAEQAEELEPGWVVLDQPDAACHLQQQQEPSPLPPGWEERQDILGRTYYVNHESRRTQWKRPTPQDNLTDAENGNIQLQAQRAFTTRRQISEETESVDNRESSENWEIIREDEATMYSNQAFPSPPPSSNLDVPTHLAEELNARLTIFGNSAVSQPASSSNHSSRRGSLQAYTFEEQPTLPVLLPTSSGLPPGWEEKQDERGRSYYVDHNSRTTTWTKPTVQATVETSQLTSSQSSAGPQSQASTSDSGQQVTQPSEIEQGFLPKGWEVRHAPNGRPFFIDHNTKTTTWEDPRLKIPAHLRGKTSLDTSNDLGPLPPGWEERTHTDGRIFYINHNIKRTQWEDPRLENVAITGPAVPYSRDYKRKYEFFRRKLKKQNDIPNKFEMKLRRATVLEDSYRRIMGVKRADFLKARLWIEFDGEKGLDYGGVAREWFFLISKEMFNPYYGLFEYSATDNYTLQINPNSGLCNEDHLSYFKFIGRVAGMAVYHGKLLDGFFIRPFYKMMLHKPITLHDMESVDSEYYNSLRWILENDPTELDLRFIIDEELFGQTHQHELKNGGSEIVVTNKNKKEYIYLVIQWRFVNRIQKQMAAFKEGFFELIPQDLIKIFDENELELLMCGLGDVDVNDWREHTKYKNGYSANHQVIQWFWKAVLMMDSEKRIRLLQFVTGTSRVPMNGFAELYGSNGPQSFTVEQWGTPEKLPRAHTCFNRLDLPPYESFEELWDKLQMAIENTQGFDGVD
UniProt P21796: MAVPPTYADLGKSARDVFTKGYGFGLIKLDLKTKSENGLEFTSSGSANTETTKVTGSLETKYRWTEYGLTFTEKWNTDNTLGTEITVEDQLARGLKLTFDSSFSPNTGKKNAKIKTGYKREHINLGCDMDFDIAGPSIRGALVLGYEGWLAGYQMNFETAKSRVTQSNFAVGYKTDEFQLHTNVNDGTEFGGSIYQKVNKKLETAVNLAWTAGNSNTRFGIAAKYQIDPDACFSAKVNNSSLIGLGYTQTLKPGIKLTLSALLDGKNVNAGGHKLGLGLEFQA

biological target: T1, Flag-tagged PMEPA1a (prostate transmembrane protein, androgen induced 1, isoform a), wild type (human) (UniProt Q969W9); assay: affinity purification with mass spectrometry; U87MG cells transfected with Flag-tagged PMEPA1a or Flag-empty-vector; Co-IP in RIPA lysate, Protein A/G magnetic beads; LC-MS/MS of the isolated complexes
T1 sequence: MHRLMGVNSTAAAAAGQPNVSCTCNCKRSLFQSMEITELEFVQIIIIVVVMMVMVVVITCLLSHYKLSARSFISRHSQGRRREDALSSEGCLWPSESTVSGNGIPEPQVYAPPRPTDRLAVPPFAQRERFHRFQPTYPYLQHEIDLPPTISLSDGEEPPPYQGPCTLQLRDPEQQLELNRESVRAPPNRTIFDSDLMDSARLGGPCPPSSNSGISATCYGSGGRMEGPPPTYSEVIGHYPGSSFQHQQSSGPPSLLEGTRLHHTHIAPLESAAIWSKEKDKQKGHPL

binding, binds:
DDB1, endogenous (from UniProt Q16531 1-1140)
HMGB1, endogenous (from UniProt P09429 1-215)
MYH9, endogenous (from UniProt P35579 1-1960)
NEDD4 (neural precursor cell expressed, developmentally downregulated 4), endogenous (from UniProt P46934 1-1319) (enzyme)
VDAC1, endogenous (from UniProt P21796 1-283)
